We go through 15 molecules from PubChem BioAssay AID220 (DTP/NCI, 2004).

The list does not hold the whole screen: it is rich in T/C values a quarter to a half above the control, in often repeated tests (any T/C) and in doses without a T/C. Further doses and runs are listed elsewhere. T/C gives the treated animals as a percentage of the vehicle group. Schedules are NCI's codes, taken here to give the interval after Q, in days (D) or hours (H), and the number of doses after X. Some T/C values are followed by the survivors on the day toxicity was checked, most often the fifth; where none is given, no animal had died by that day. Some entries give survivors of the animals treated and no T/C: the source holds a T/C of zero for them, seemingly a mark for toxic or unscored doses. Counts of survivors are from the toxicity check (mostly the fifth day) where no day follows; animals may have died later. Some doses were run more than once; their values stand side by side, smallest first.

The test concerns CD8F1 mice, subcutaneous mammary adenocarcinoma, T/C%. Briefly: NCI In Vivo Anticancer Drug Screen. Data for tumor model Mammary Adenocarcinoma CD8F1 (subcutaneous) in CD8F1. Particulars: higher T/C = larger tumour. In outline:
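Compound-treated versus vehicle-treated mice with transplantable tumors; survival or tumor size compared as T/C.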

Setting [1] is: T/C endpoint: median tumor weight change, dose: 200.0 mg/kg/injection, schedule: Q01DX001 (ip), vehicle: saline with Tween-80.

For the molecule `CCc1ncnc2cc(OCC3CO3)c(OC)cc12` (stereo not drawn), the survivor count is 0 of 10 on day 29 (T/C endpoint: median tumor weight change, dose: 50.0 mg/kg/injection, schedule: Q01DX001 (ip), vehicle: suspension in saline); 0 of 10 on day 29 (T/C endpoint: median tumor weight change, dose: 100.0 mg/kg/injection, schedule: Q01DX001 (ip), vehicle: suspension in saline); 0 of 10 on day 36 and 6 of 10 on day 29 (T/C endpoint: median tumor weight change, dose: 200.0 mg/kg/injection, schedule: Q01DX001 (ip), vehicle: suspension in saline); 0 of 10 on day 36 (T/C endpoint: median tumor weight change, dose: 400.0 mg/kg/injection, schedule: Q01DX001 (ip), vehicle: suspension in saline); 0 of 10 on day 29 (T/C endpoint: median tumor weight change, dose: 800.0 mg/kg/injection, schedule: Q01DX001 (ip), vehicle: suspension in saline).
Consider `CC12CC(C(=O)O)C3(O)CC(C)(C1)CC(C)(C2)C3` (stereo not drawn) (tested in a mixture with another compound), for which, where the note is “T/C endpoint: median tumor weight (est.), dose: 100.0 mg/kg/injection, schedule: Q07DX005 (ip), vehicle: Klucel (hydroxypropylcellulose) (HPC), evaluated on day 30”, the T/C is 125 % of control.
As to `COC(=O)Nc1cccc(-c2nc3ccc(NC(=O)OC)cc3c(=O)n2-c2ccccc2)c1`, the T/C runs as follows: (T/C endpoint: mean tumor weight, dose: 200.0 mg/kg/injection, schedule: Q07DX006 (ip), vehicle: saline, evaluated on day 44) 133 % of control; (T/C endpoint: mean tumor weight, dose: 400.0 mg/kg/injection, schedule: Q07DX006 (ip), vehicle: saline, evaluated on day 44) 131 % of control [9 of 10 alive]; (T/C endpoint: median tumor weight (est.), dose: 25.0 mg/kg/injection, schedule: Q04DX005 (ip), vehicle: saline, evaluated on day 30) 145 % of control; (T/C endpoint: median tumor weight (est.), dose: 100.0 mg/kg/injection, schedule: Q04DX005 (ip), vehicle: saline, evaluated on day 30) 142 % of control [9 of 10 alive]; (T/C endpoint: median tumor weight (est.), dose: 100.0 mg/kg/injection, schedule: Q07DX004 (ip), vehicle: saline, evaluated on day 30) 143 % of control.
Take `CC[C@](C)(O)C(=O)O[C@H]1C(=O)O[C@@H]2C[C@H]3C(C)=CC(=O)[C@@H](O)[C@]3(C)[C@H]3[C@@]4(O)OC[C@]32[C@@H]1[C@@H](C)[C@H]4O`: the survivor count is reported as 5 of 10 (T/C endpoint: median tumor weight (est.), dose: 0.5 mg/kg/injection, schedule: Q07DX005 (ip), vehicle: Klucel (hydroxypropylcellulose) (HPC)); 2 of 10 on day 35 (T/C endpoint: median tumor weight change, dose: 2.0 mg/kg/injection, schedule: Q01DX001 (ip), vehicle: Klucel (hydroxypropylcellulose) (HPC)); 0 of 10 on day 35 (T/C endpoint: median tumor weight change, dose: 4.0 mg/kg/injection, schedule: Q01DX001 (ip), vehicle: Klucel (hydroxypropylcellulose) (HPC)); 0 of 10 on day 35 (T/C endpoint: median tumor weight change, dose: 6.0 mg/kg/injection, schedule: Q01DX001 (ip), vehicle: Klucel (hydroxypropylcellulose) (HPC)).
Consider `COC1=C2C[C@@H](C)C[C@@H](OC)[C@@H](O)[C@H](C)/C=C(\C)[C@@H](OC(N)=O)[C@H](OC)/C=C\C=C(/C)C(=O)NC(=CC1=O)C2=O`, for which, where the note is “T/C endpoint: median tumor weight change, dose: 5.0 mg/kg/injection, schedule: Q01DX001 (ip), vehicle: saline with Tween-80, evaluated on day 29”, the T/C was 130 % of control. In addition, the survivor count (T/C endpoint: median tumor weight change, dose: 20.0 mg/kg/injection, schedule: Q01DX001 (ip), vehicle: saline with Tween-80) was 1 of 10 on day 29 and 2 of 10 on day 25.
For `Cc1ccc2c(c1)C(=O)N(CC[P+](c1ccccc1)(c1ccccc1)c1ccccc1)C2=O`, the T/C runs as follows: (T/C endpoint: mean tumor weight, dose: 3.12 mg/kg/injection, schedule: Q07DX006 (ip), vehicle: water, evaluated on day 42) 139 % of control; (T/C endpoint: median tumor weight (est.), dose: 1.56 mg/kg/injection, schedule: Q07DX005 (ip), vehicle: water, evaluated on day 33) 127 % of control. Moreover, the survivor count is, setting by setting: (T/C endpoint: mean tumor weight, dose: 12.5 mg/kg/injection, schedule: Q07DX006 (ip), vehicle: water) 3 of 10; (T/C endpoint: median tumor weight (est.), dose: 12.5 mg/kg/injection, schedule: Q07DX005 (ip), vehicle: water) 5 of 10.
Turning to `COc1cc2c3c(cccc3c1)C(=O)N(CCN(C)C)C2=O`, the survivor count is 0 of 10 on day 28 and 5 of 10 on day 29 under setting [1]; 0 of 10 on day 29 and 1 of 10 on day 28 (T/C endpoint: median tumor weight change, dose: 400.0 mg/kg/injection, schedule: Q01DX001 (ip), vehicle: saline with Tween-80); 0 of 10 on day 28 and 0 of 10 on day 29 (T/C endpoint: median tumor weight change, dose: 800.0 mg/kg/injection, schedule: Q01DX001 (ip), vehicle: saline with Tween-80).
Consider `CC/C(=C(/CC)c1ccc(O)cc1)c1ccc(O)cc1`, for which, under “T/C endpoint: median tumor weight (est.), dose: 400.0 mg/kg/injection, schedule: Q07DX005 (ip), vehicle: water”, the survivor count was 6 of 10 on day 30.
On to `Cc1cc(NS(=O)(=O)c2ccc(N=Nc3cc(N=Nc4ccc(S(=O)(=O)Nc5cc(C)nc(C)n5)cc4)c4c(NC(=O)C(Cl)Cl)cccc4c3OC(=O)C(Cl)Cl)cc2)nc(C)n1` (tested in a mixture with another compound), for which, for the setting “T/C endpoint: median tumor weight change, dose: 125.0 mg/kg/injection, schedule: Q01DX001 (ip), vehicle: suspension in saline, evaluated on day 41”, the T/C is 125 % of control. Also, the survivor count runs as follows: (T/C endpoint: median tumor weight change, dose: 1000.0 mg/kg/injection, schedule: Q01DX001 (ip), vehicle: suspension in saline) 3 of 10 on day 41; (T/C endpoint: median tumor weight change, dose: 2000.0 mg/kg/injection, schedule: Q01DX001 (ip), vehicle: suspension in saline) 0 of 10 on day 41.
Regarding `C/C=C(\C)c1cc(=O)c2c(C)cc3c(c2o1)C(=O)c1c(O)c(C2CC(C)(N(C)C)C(O)C(C)O2)cc(C2CC(N(C)C)C(O)C(C)O2)c1C3=O` (stereo not drawn), the T/C (T/C endpoint: median tumor weight change, dose: 0.62 mg/kg/injection, schedule: Q01DX001 (ip), vehicle: saline, evaluated on day 32) is 142 % of control. For the same molecule, the survivor count is, setting by setting: (T/C endpoint: median tumor weight change, dose: 10.0 mg/kg/injection, schedule: Q01DX001 (ip), vehicle: saline) 3 of 10 on day 28; (T/C endpoint: median tumor weight change, dose: 10.0 mg/kg/injection, schedule: Q01DX001 (ip), vehicle: suspension in saline) 0 of 10 on day 28; (T/C endpoint: median tumor weight change, dose: 20.0 mg/kg/injection, schedule: Q01DX001 (ip), vehicle: saline) 0 of 10 on day 32 and 4 of 10 on day 28; (T/C endpoint: median tumor weight change, dose: 20.0 mg/kg/injection, schedule: Q01DX001 (ip), vehicle: suspension in saline) 0 of 10 on day 28.
For `CCOC(OCC)C(=O)OCC(=O)[C@]1(O)Cc2c(O)c3c(c(O)c2[C@@H](OC2CC(N)C(O)C(C)O2)C1)C(=O)c1c(OC)cccc1C3=O` (stereo partly drawn), the survivor count (T/C endpoint: median tumor weight (est.), dose: 8.0 mg/kg/injection, schedule: Q07DX005 (ip), vehicle: saline) is given as 2 of 10 on day 30; the survivor count (T/C endpoint: median tumor weight (est.), dose: 16.0 mg/kg/injection, schedule: Q07DX005 (ip), vehicle: saline) is reported as 0 of 10 on day 30; the survivor count (T/C endpoint: median tumor weight (est.), dose: 16.0 mg/kg/injection, schedule: Q07DX005 (ip), vehicle: water) was 1 of 10 on day 30; the survivor count (T/C endpoint: median tumor weight (est.), dose: 32.0 mg/kg/injection, schedule: Q07DX005 (ip), vehicle: water) was 0 of 10 on day 30.
In the case of `CC(Cc1ccc(O)cc1)NCC(O)c1ccc(O)c(O)c1` (stereo not drawn), the T/C (T/C endpoint: median tumor weight (est.), dose: 100.0 mg/kg/injection, schedule: Q07DX005 (ip), vehicle: saline with Tween-80, evaluated on day 30) was 149 % of control [9 of 10 alive].
For `CC[N+](CC)(CC)CC`, the survivor count is 4 of 10 on day 43 and 6 of 10 on day 28 (T/C endpoint: median tumor weight change, dose: 40.0 mg/kg/injection, schedule: Q01DX001 (ip), vehicle: saline with Tween-80); 0 of 10 on day 34, 3 of 10 on day 27, 5 of 10 on day 28, 6 of 10 on day 28 (T/C endpoint: median tumor weight change, dose: 60.0 mg/kg/injection, schedule: Q01DX001 (ip), vehicle: saline with Tween-80); 0 of 10 on day 28 and 1 of 10 on day 28 (T/C endpoint: median tumor weight change, dose: 90.0 mg/kg/injection, schedule: Q01DX001 (ip), vehicle: saline with Tween-80); 2 of 10 on day 27 (T/C endpoint: median tumor weight change, dose: 120.0 mg/kg/injection, schedule: Q01DX001 (ip), vehicle: saline with Tween-80); 0 of 10 on day 28 (T/C endpoint: median tumor weight change, dose: 133.0 mg/kg/injection, schedule: Q01DX001 (ip), vehicle: saline with Tween-80); 0 of 10 on day 28 under setting [1]. Further, the survivor count (T/C endpoint: median tumor weight change, dose: 300.0 mg/kg/injection, schedule: Q01DX001 (ip), vehicle: saline with Tween-80) is given as 0 of 10 on day 28.
Take `CC1(CO)C(O)CCC2(C)C1CCC1CC3CC12CCC3(O)CO` (stereo not drawn): the T/C is, setting by setting: (T/C endpoint: median tumor weight (est.), dose: 75.0 mg/kg/injection, schedule: Q07DX005 (ip), vehicle: saline with Tween-80, evaluated on day 30) 147 % of control; (T/C endpoint: median tumor weight (est.), dose: 150.0 mg/kg/injection, schedule: Q07DX005 (ip), vehicle: saline with Tween-80, evaluated on day 30) 147 % of control [5 of 6 alive].
Turning to `CN(C)C(=O)c1cccc(COc2ccc(N3C(N)=NC(N)=NC3(C)C)cc2Cl)c1`, for the setting “T/C endpoint: median tumor weight (est.), dose: 64.0 mg/kg/injection, schedule: Q07DX005 (ip), vehicle: suspension in saline”, the survivor count is given as 2 of 10.
